In the supplement of paper PMC3334620:
In all, about 33,000 sequences were measured (“E-score (-0.5 to 0.5)”: median about -0.0034, highest 2% from about 0.25 on). This is one part of the list.

The sequences below were run against T1, Yap3 (UniProt P38749) (assay: PBM E-score (8-mer binding enrichment) (E-score (-0.5 to 0.5)); higher = stronger / more preferred TF binding). Conditions: protein concentration: 100 nM; construct: GST-full length.
T1 sequence: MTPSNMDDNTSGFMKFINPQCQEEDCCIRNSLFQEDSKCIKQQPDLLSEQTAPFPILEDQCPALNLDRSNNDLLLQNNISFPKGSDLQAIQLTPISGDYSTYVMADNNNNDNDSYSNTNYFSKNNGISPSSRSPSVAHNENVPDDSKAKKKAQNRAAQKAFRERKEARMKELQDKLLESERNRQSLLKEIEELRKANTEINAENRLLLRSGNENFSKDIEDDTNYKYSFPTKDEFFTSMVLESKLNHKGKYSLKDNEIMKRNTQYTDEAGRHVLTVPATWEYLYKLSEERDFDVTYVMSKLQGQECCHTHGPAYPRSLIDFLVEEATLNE
In short: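 Using PURExpress in vitro transcription/translation, GST-tagged yeast transcription factors were made in full-length or DNA-binding-domain form. These were applied at about 100-200 nM to double-stranded universal all-10-mer Agilent arrays, and bound protein was detected with fluorescent anti-GST. Scans were normalised with masliner before the Universal PBM Analysis Suite assigned E-scores to ungapped eight-base words pooled with their reverse complements.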

Compared with ATTGTTGC, AGTCCAAA is lower in “PBM E-score” value: 0.0249 for the first, -0.0855 for the second.

First: TACACCAA
Second: AAGAGCCC
The “PBM E-score” value of the first is higher: 0.0771 for the first, -0.211 for the second.

First: CCACAGGA
Second: CCAAAACG
The “PBM E-score” value of the first is lower: -0.0415 for the first, 0.0165 for the second.

First: GCAGTTGA
Second: CCCCAGCA
The “PBM E-score” value of the first is higher: -0.0429 for the first, -0.188 for the second.

Going from AACTGCCC to TACCAAGA, the “PBM E-score” value rises from -0.0934 to 0.0977.

Compared with ATGTCGGC, ACAGTTTC is higher in “PBM E-score” value: -0.143 for the first, 0.174 for the second.

Compared with AGGCCACT, TCGCAGAA is lower in “PBM E-score” value: -0.143 for the first, -0.174 for the second.

First: AATAGTCT
Second: CTCTTCTA
The “PBM E-score” value of the first is higher: 0.0416 for the first, -0.0308 for the second.

Going from ACGTGCGG to ATATCCTA, the “PBM E-score” value falls from 0.144 to 0.133.

Compared with GAAGGTAA, CTCAGATC is lower in “PBM E-score” value: 0.187 for the first, -0.0337 for the second.

Compared with GAATCTCA, CCCCACGG is lower in “PBM E-score” value: -0.147 for the first, -0.335 for the second.

Compared with GGATTTAC, AGCTCGGC is lower in “PBM E-score” value: 0.13 for the first, -0.0442 for the second.

First: CACATTAC
Second: AAAATGGG
The “PBM E-score” value of the first is higher: 0.276 for the first, -0.0559 for the second.

First: AGCCACTA
Second: CGGTCATC
The “PBM E-score” value of the first is lower: -0.0714 for the first, 0.0664 for the second.

Going from CCACGACC to GCTACATA, the “PBM E-score” value rises from -0.19 to 0.0203.

First: AGCTACTC
Second: GAGAAGGA
The “PBM E-score” value of the first is higher: -0.0266 for the first, -0.117 for the second.

Compared with CACTATAG, GGCGTCGA is lower in “PBM E-score” value: 0.0438 for the first, -0.00296 for the second.

First: ATCGTCCA
Second: ATACGCAC
The “PBM E-score” value of the first is lower: -0.158 for the first, 0.0362 for the second.

Compared with AGCCTGAT, AATCATTG is higher in “PBM E-score” value: -0.0632 for the first, 0.142 for the second.

Going from CTCAGACA to TGTGGGAA, the “PBM E-score” value falls from 0.087 to 0.0673.

Going from CCGACCTC to ACGCCGTC, the “PBM E-score” value rises from -0.17 to 0.0449.

First: AAGAACTG
Second: ACTAATGC
The “PBM E-score” value of the first is lower: -0.0134 for the first, 0.216 for the second.

First: CAACTCTA
Second: CGGAGATC
The “PBM E-score” value of the first is higher: -0.0767 for the first, -0.142 for the second.

Going from CGCTACAA to TATGATGA, the “PBM E-score” value rises from 0.0266 to 0.169.

Going from GTCAATAA to ACCTTATG, the “PBM E-score” value falls from 0.0709 to 0.0534.

Compared with AAGTAATG, AAGCGATA is lower in “PBM E-score” value: 0.191 for the first, 0.0345 for the second.

Compared with ATGTGGCA, AGTTCGCC is higher in “PBM E-score” value: -0.0638 for the first, 0.0288 for the second.

First: AATGCTAG
Second: CGGACGGC
The “PBM E-score” value of the first is higher: -0.0127 for the first, -0.178 for the second.

Compared with CCGGGCCA, ATAAATAC is higher in “PBM E-score” value: -0.285 for the first, 0.325 for the second.

Going from GTAAAGCA to CAGTCGGA, the “PBM E-score” value falls from 0.145 to -0.00775.

Going from ATAGATGC to AGATCTAC, the “PBM E-score” value rises from -0.0393 to 0.0426.

First: GCGGGCGA
Second: AAGTTTTG
The “PBM E-score” value of the first is lower: -0.164 for the first, 0.0825 for the second.

Compared with CGAAACGA, GACCCGTA is lower in “PBM E-score” value: 0.108 for the first, -0.171 for the second.

First: CTACTAAA
Second: CTTGGTTA
The “PBM E-score” value of the first is lower: 0.0259 for the first, 0.118 for the second.

First: CTGAGTGC
Second: ACTCGGCC
The “PBM E-score” value of the first is higher: -0.0152 for the first, -0.0473 for the second.

Going from ATGAAAGA to CATGCCAA, the “PBM E-score” value falls from 0.233 to 0.118.

Compared with TTACTCAA, AACTCCCG is lower in “PBM E-score” value: 0.069 for the first, -0.0429 for the second.

First: ATGCATAC
Second: CTTCCCCC
The “PBM E-score” value of the first is higher: 0.153 for the first, -0.29 for the second.

Going from CTAAAATA to AAAGCGCA, the “PBM E-score” value falls from 0.148 to -0.049.

Going from CGACTCCG to TGGGCAAA, the “PBM E-score” value rises from -0.24 to 0.0909.

Compared with ACGCGTTC, AAATAATC is lower in “PBM E-score” value: 0.064 for the first, 0.0637 for the second.

Going from CCCTCCCG to CCACGAAA, the “PBM E-score” value rises from -0.203 to -0.0359.

Going from GAGCCATC to CTGCGCCC, the “PBM E-score” value falls from -0.128 to -0.272.

Going from ACTTGATA to CCTTTACC, the “PBM E-score” value falls from 0.169 to -0.182.

Compared with CGATTGCG, ACAAAACA is higher in “PBM E-score” value: -0.0346 for the first, 0.202 for the second.

Going from CCGGACGC to AGTGGTGA, the “PBM E-score” value falls from 0.026 to -0.0796.

Compared with AGCCATAG, AGTTGCAG is higher in “PBM E-score” value: -0.161 for the first, -0.13 for the second.

Compared with AAGACTTG, GTTAGTAA is higher in “PBM E-score” value: 0.0235 for the first, 0.217 for the second.

First: GTTATAAA
Second: CTCACAGA
The “PBM E-score” value of the first is higher: 0.283 for the first, -0.11 for the second.

Going from ATGTAGTG to CTACGGGC, the “PBM E-score” value falls from 0.0548 to -0.258.

Compared with TCAAGTGA, AAGCATTA is higher in “PBM E-score” value: 0.0272 for the first, 0.106 for the second.

First: AATATTGA
Second: TCTCAGAA
The “PBM E-score” value of the first is higher: 0.221 for the first, -0.0479 for the second.

First: TGGGAAAA
Second: CAATGCGC
The “PBM E-score” value of the first is lower: 0.00484 for the first, 0.116 for the second.

Compared with ATCATCAC, CCGTAGCG is lower in “PBM E-score” value: 0.0853 for the first, -0.173 for the second.

First: TAATTGTA
Second: AGAACCTC
The “PBM E-score” value of the first is higher: 0.167 for the first, -0.134 for the second.

First: CTGGGGAA
Second: CCTCATCC
The “PBM E-score” value of the first is higher: -0.263 for the first, -0.283 for the second.

Compared with CAGGTAGC, ACTTCGCA is higher in “PBM E-score” value: -0.203 for the first, -0.0112 for the second.

First: ACACCGTA
Second: GCTTTGAC
The “PBM E-score” value of the first is lower: -0.00758 for the first, 0.119 for the second.

Compared with ACCGGGCC, ACCGACAC is higher in “PBM E-score” value: -0.243 for the first, 0.025 for the second.

Going from AGGTATAC to AAGGACGA, the “PBM E-score” value falls from 0.0842 to -0.141.

Going from GACGTATC to CAATCTCG, the “PBM E-score” value rises from -0.18 to -0.0908.

Compared with AAAAGAGG, CGACGCCG is lower in “PBM E-score” value: 0.00617 for the first, -0.181 for the second.

First: ATGCTCCA
Second: GAATTCGC
The “PBM E-score” value of the first is lower: -0.0487 for the first, 0.0479 for the second.

First: ACTAACAA
Second: TCCAACAA
The “PBM E-score” value of the first is higher: 0.106 for the first, 0.0108 for the second.

First: TAGTAGGA
Second: CCCTACCC
The “PBM E-score” value of the first is higher: -0.0796 for the first, -0.115 for the second.

Compared with GACGTGCA, GCAAACGC is lower in “PBM E-score” value: 0.0279 for the first, -0.0256 for the second.

Going from AGATGACT to AGGCCTCG, the “PBM E-score” value falls from -0.0919 to -0.274.

Going from AATATTCG to AACCTCGC, the “PBM E-score” value falls from 0.223 to 0.0227.

First: CCCTCCAG
Second: GACCGAGA
The “PBM E-score” value of the first is lower: -0.374 for the first, 0.0894 for the second.

Going from AAGCGTCG to GTTGCCGA, the “PBM E-score” value rises from -0.104 to -0.0261.

Compared with ATCGTCCC, AGCCTACT is lower in “PBM E-score” value: 0.108 for the first, -0.0645 for the second.

First: CGTCTTCC
Second: GCCATCAA
The “PBM E-score” value of the first is lower: -0.0322 for the first, 0.114 for the second.

First: TAACTTGA
Second: CCTACGCA
The “PBM E-score” value of the first is higher: 0.0373 for the first, -0.0539 for the second.

First: CTCCATTA
Second: CCGACGAC
The “PBM E-score” value of the first is lower: -0.109 for the first, -0.0462 for the second.

Going from AATATAAT to CCTTAGAC, the “PBM E-score” value falls from 0.179 to -0.108.

First: ACCACAAA
Second: AGGCAGCA
The “PBM E-score” value of the first is lower: 0.163 for the first, 0.184 for the second.

Going from CGTGCCAG to AAGGTGAT, the “PBM E-score” value rises from -0.258 to 0.112.

Compared with GTTCGGTA, TGGCCGAA is lower in “PBM E-score” value: 0.0961 for the first, 0.0477 for the second.

Going from CTCTCATA to CGTCTACA, the “PBM E-score” value falls from 0.0903 to -0.155.

Going from AACGGATG to CGCCACGA, the “PBM E-score” value falls from -0.101 to -0.252.

First: ACCAAATA
Second: ACGCGGGA
The “PBM E-score” value of the first is higher: 0.177 for the first, 0.0897 for the second.

Going from GCCTGCAC to GTTACATA, the “PBM E-score” value rises from -0.176 to 0.202.

Compared with ACTTTGTG, CAGCATTC is lower in “PBM E-score” value: 0.0964 for the first, -0.0156 for the second.

Going from ATCTGAAC to ACTTCTGG, the “PBM E-score” value falls from -0.0175 to -0.0349.

Compared with AGTCGCTC, CCAACATA is higher in “PBM E-score” value: -0.0879 for the first, 0.305 for the second.

Compared with CAAGTCTG, CGTGCGCA is higher in “PBM E-score” value: -0.175 for the first, -0.0258 for the second.
